Laboratory results as given in paper PMC7318079.
These are yes or no findings as the source states them, for the method shown. Binding seen in cells or lysates may run through a third protein. Some binding calls cover weakened binding; strength is not graded here.

Protein sequences, listed by entry. Tags and fused reporters are not part of them. Residues count along the entry.
UniProt Q9BZS1, residues 1-417: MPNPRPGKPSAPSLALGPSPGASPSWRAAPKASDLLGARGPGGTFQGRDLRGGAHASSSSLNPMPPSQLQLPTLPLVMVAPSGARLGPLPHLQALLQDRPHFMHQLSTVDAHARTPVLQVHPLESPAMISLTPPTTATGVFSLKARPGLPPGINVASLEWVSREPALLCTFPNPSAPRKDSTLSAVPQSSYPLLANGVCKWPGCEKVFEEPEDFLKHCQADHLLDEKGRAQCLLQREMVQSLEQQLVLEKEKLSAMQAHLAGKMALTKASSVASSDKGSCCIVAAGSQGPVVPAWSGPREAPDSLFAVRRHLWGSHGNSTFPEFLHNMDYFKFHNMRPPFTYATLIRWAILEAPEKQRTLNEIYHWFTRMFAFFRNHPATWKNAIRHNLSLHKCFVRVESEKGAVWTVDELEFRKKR
UniProt Q00987: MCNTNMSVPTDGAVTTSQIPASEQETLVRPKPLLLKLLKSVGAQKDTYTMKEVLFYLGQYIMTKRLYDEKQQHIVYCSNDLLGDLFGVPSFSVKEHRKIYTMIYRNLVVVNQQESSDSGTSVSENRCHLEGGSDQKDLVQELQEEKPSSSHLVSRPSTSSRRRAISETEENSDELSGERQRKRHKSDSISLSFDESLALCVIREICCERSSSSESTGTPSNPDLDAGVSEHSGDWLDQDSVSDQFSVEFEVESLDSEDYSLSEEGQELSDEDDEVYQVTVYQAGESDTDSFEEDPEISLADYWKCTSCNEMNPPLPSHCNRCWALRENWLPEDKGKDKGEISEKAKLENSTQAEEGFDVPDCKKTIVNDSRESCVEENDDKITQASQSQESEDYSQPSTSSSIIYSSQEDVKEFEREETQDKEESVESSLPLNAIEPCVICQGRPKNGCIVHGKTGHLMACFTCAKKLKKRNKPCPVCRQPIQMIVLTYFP

What was measured:
[1] = molecular target: FOXP3 (forkhead box P3), endogenous in human Treg cells (human (endogenous in iTreg cells)) (UniProt Q9BZS1); assay: co-IP; endogenous IP from human iTreg cell lysate with anti-MDM2 or anti-FOXP3 antibodies; RIPA buffer, 4°C, protein A/G Plus-agarose, six washes; Western blot
[2] = molecular target: Myc-tagged FOXP3 (forkhead box P3) (human) (UniProt Q9BZS1); assay: co-IP; HEK293T cells co-transfected with Myc-FOXP3 and Flag-MDM2, harvested after 48 h; reciprocal IP with anti-Myc or anti-Flag antibodies; RIPA buffer (50 mM Tris-HCl pH 7.5, 135 mM NaCl, 0.5% sodium deoxycholate, 10% glycerol, 1 mM EDTA, 0.5% NP-40), 4°C, protein A/G Plus-agarose, six washes; Western blot

| binding [1] | binding [2] | Substance |
| --- | --- | --- |
| binds | – | MDM2 (mouse double minute 2 homolog), endogenous in human Treg cells (from UniProt Q00987 1-491) |
| – | binds | Flag-tagged MDM2 (mouse double minute 2 homolog), wild type (from UniProt Q00987 1-491) |
